A short description of this series: physchem. As to conditions: octanol/water.

A word on the logP: it is a log measure of how a compound divides between an organic and an aqueous phase. Compound `COC(=O)C1=C(C)NC(C)=C(C(=O)OC)C1c1ccccc1[N+](=O)[O-]` [NIFEDIPINE] showed a logP of 3.3.

For the origin of these results see ChEMBL document CHEMBL3526137, “Comparison of cryopreserved HepaRG cells with cryopreserved human hepatocytes for prediction of clearance for 26 drugs” (Drug Metab Dispos, 2012).
